Source: PMC4760308

Assays:
[1] = molecular target: HA-ASCL1-ΔC (not stated (human or Xenopus cDNA cloned)) (UniProt P50553); assay: co-IP; anti-HA immunocomplexes of HA-ASCL1-ΔC, western blots with anti-Myc-tag or anti-HA antibodies (Fig. 7C,E)
HA-HDAC1 (Xenopus) = assay: co-IP; 293T cell lysate overexpressing 6MT-ASCL1 or HA-HDAC1 constructs; precipitation with anti-HA, western blot with anti-MT
[2] = molecular target: HDAC1 of the tag-swap co-IP (Xenopus); assay: co-IP; tag-swap experiment; precipitation with anti-Myc antibodies (Fig. S6F)

binding [1]: binds
B1: MT-VegT (protein, UniProt P87377 1-455)
chain: MRNCCRECGLSAGHLEPEASSNCASDVKSSPDMDSVSSQDSLYLPNTVGASLEDQDLWSQFHQEGTEMIITKSGRRMFPQCKIRLFGLHPYAKYMLLVDFVPLDNFRYKWNKNQWEAAGKAEPHPPCRTYVHPDSPAPGAHWMKDPICFQKLKLTNNTLDQQGHIILHSMHRYKPRFHVVQSDDMYNSPWGLVQVFSFPETEFTSVTAYQNEKITKLKINHNPFAKGFREQERSHKRDDVLKILQQSPSKRQKRKKWEDSPEADISDFPKAICVKEESIMDPAGVYQNWVSDHEANQGLTPHSPESEGANQEQQVPTSSSNFYNKSHYRRSSQHLSSPFELGEPSSRRLTPDIATVPDSDPDSLAVFHVIPTQNSAPERTCSMNFSMEAPMKQPLRGAMYSPYGADQWLVPAQGQYRPVGYTAYPTDLSTQGAVAHPHSAMSDWSQYSLFPYSCW

binding (HA-HDAC1 (Xenopus)): binds
B2: 6MT-ASCL1-WT (protein, UniProt P50553 1-236)
chain: MESSAKMESGGAGQQPQPQPQQPFLPPAACFFATAAAAAAAAAAAAAQSAQQQQQQQQQQQQAPQLRPAADGQPSGGGHKSAPKQVKRQRSSSPELMRCKRRLNFSGFGYSLPQQQPAAVARRNERERNRVKLVNLGFATLREHVPNGAANKKMSKVETLRSAVEYIRALQQLLDEHDAVSAAFQAGVLSPTISPNYSNDLNSMAGSPVSSYSSDEGSYDPLSPEEQELLDFTNWF

binding [2]: binds
B3: ASCL1-WT of the tag-swap co-IP (protein, UniProt P50553 1-236)
chain: MESSAKMESGGAGQQPQPQPQQPFLPPAACFFATAAAAAAAAAAAAAQSAQQQQQQQQQQQQAPQLRPAADGQPSGGGHKSAPKQVKRQRSSSPELMRCKRRLNFSGFGYSLPQQQPAAVARRNERERNRVKLVNLGFATLREHVPNGAANKKMSKVETLRSAVEYIRALQQLLDEHDAVSAAFQAGVLSPTISPNYSNDLNSMAGSPVSSYSSDEGSYDPLSPEEQELLDFTNWF

These are yes or no findings as the source states them, for the method shown. Binding seen in cells or lysates may run through a third protein. Binding calls can cover weak binding; strength is not graded here. For part of these data: Tags and fused reporters may be left off the sequences shown. One block for each binder: values may come before it.
